# Measurements reported in PubChem BioAssay AID1053208 (Peter MacCallum Cancer Centre, 2014).
# Test: 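Genes whose silencing cuts survival of bone tumour cells only with doxorubicin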 (primary screen)
# Cells: mouse osteosarcoma cells, early-passage culture from an engineered mouse model of fibroblastic bone tumour
# Knock-down reagent: siRNA pool against mouse genes, 40 nM
# Time to read-out: about 120 h (48 h before drug, then 72 h with drug)
# Conditions: doxorubicin 100 nM for 72 h, roughly 30-40% inhibitory dose
# Measurement: 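Luminescent ATP signal taken as viability with or without 100 nM doxorubicin for 72 h; mean of two wells set against non-targeting siRNA and turned into robust z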
# Reading the numbers: viability z-score with doxorubicin and doxorubicin viability vs non-targeting: higher = more viable cells under doxorubicin; viability z-score without drug: higher = more viable cells with knock-down alone; z-score of drug to no-drug ratio: higher = less drug sensitisation by knock-down
# Hit rule: 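a pool counts as active when its viability z-score with doxorubicin is -2 or below and its z-score without drug lies between -2 and 2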
# The deposit covers about 17,000 reagents; shown is a part drawn at random. 788 of all reagents (4.7%) were called active. 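Calls rest on z-score classes alone; an extra cut-off of viability at most 70% of control was not applied to them.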 Entries without a mark were called inactive.
gene symbol,combined z-score class,viability z-score with doxorubicin,viability z-score without drug,z-score of drug to no-drug ratio,doxorubicin viability vs non-targeting
Deup1,no change with or without drug,0.67,-0.17,0.9,1
Wdr20rt,low cell count with doxorubicin only (active),-2.36,-1.18,-1.69,0.73
Creld1,no change with or without drug,0.79,0.34,0.67,1.01
Taf10,no change with or without drug,-1.12,-0.84,-0.56,0.84
Nrip1,no change with or without drug,0.34,-0.51,0.79,0.97
Pdzd11,no change with or without drug,0.45,0.51,0.22,0.98
Galnt2,no change with or without drug,-0.67,-1.18,0.22,0.88
Mustn1,no change with or without drug,1.57,0,1.8,1.08
Scap,no change with or without drug,1.8,1.85,0.67,1.1
Rrad,no change with or without drug,0,-0.17,0.22,0.94
Kansl3,no change with or without drug,0.45,-0.67,1.12,0.98
Man1a,no change with or without drug,-0.22,0,-0.11,0.92
Mtmr2,no change with or without drug,1.12,-0.17,1.46,1.04
Anapc4,low cell count with doxorubicin only (active),-2.02,-1.35,-1.24,0.76
Olfr899,no change with or without drug,0,1.69,-0.9,0.94
Glod4,no change with or without drug,0,-0.84,0.67,0.94
Colgalt1,no change with or without drug,0.67,-0.17,0.9,1
Cmss1,no change with or without drug,1.12,1.01,0.56,1.04

4 of these entries, set out differently:
{"gene symbol": "Man1a", "combined z-score class": "no change with or without drug", "viability z-score with doxorubicin": -0.22, "viability z-score without drug": 0, "z-score of drug to no-drug ratio": -0.11, "doxorubicin viability vs non-targeting": 0.92}
{"gene symbol": "Mtmr2", "combined z-score class": "no change with or without drug", "viability z-score with doxorubicin": 1.12, "viability z-score without drug": -0.17, "z-score of drug to no-drug ratio": 1.46, "doxorubicin viability vs non-targeting": 1.04}
{"gene symbol": "Anapc4", "combined z-score class": "low cell count with doxorubicin only (active)", "viability z-score with doxorubicin": -2.02, "viability z-score without drug": -1.35, "z-score of drug to no-drug ratio": -1.24, "doxorubicin viability vs non-targeting": 0.76}
{"gene symbol": "Olfr899", "combined z-score class": "no change with or without drug", "viability z-score with doxorubicin": 0, "viability z-score without drug": 1.69, "z-score of drug to no-drug ratio": -0.9, "doxorubicin viability vs non-targeting": 0.94}

Additional entries follow.
gene symbol,combined z-score class,viability z-score with doxorubicin,viability z-score without drug,z-score of drug to no-drug ratio,doxorubicin viability vs non-targeting
Ppard,no change with or without drug,0.45,-0.34,0.79,0.98
Abhd17a,no change with or without drug,1.35,-0.17,1.69,1.06
Wdr41,no change with or without drug,-0.79,0.51,-1.01,0.87
Usp9y,no change with or without drug,0,0.84,-0.45,0.94
A630091E08Rik,no change with or without drug,0.34,0.34,0.22,0.97
Gm839,no change with or without drug,1.24,-0.17,1.57,1.05
Mgrn1,no change with or without drug,-0.9,-0.51,-0.56,0.86
Pprc1,no change with or without drug,-0.45,-0.51,0,0.9
Ppp1r14d,no change with or without drug,0.56,1.52,-0.34,0.99
Slc2a1,no change with or without drug,0.67,1.01,0.11,1
H1f0,no change with or without drug,0.45,1.85,-0.67,0.98
Cartpt,no change with or without drug,-0.45,0.51,-0.67,0.9
Gad2,no change with or without drug,1.46,0,1.69,1.07
Glp2r,no change with or without drug,0.45,0.34,0.34,0.98
Gnl3l,low cell count without drug only,-1.35,-3.2,1.12,0.82
Or8b50,no change with or without drug,1.35,0.67,1.01,1.06
Or10al7,no change with or without drug,-1.46,-0.84,-0.9,0.81
Mtf2,no change with or without drug,0.22,-0.17,0.45,0.96
Flna,no change with or without drug,0.22,-0.51,0.67,0.96
Adam30,no change with or without drug,0.9,0.84,0.45,1.02
Inpp5e,no change with or without drug,0.22,-1.35,1.35,0.96
Osbpl8,no change with or without drug,-1.8,-1.01,-1.12,0.78
Mybl2,no change with or without drug,-0.67,-0.17,-0.45,0.88
Slamf9,no change with or without drug,-0.34,0.17,-0.34,0.91
Tspyl2,no change with or without drug,-0.67,0.17,-0.67,0.88
Cdh6,no change with or without drug,-1.24,-0.51,-0.9,0.83
Lrrtm4,no change with or without drug,-0.34,-0.84,0.34,0.91
Ube2d1,no change with or without drug,-0.45,0.51,-0.67,0.9
Pbrm1,no change with or without drug,0.22,-0.51,0.67,0.96
Or5g9,no change with or without drug,-1.24,-1.85,0.11,0.83
Peak1,no change with or without drug,-0.9,0.84,-1.35,0.86
Ccrl2,no change with or without drug,0,0.51,-0.22,0.94
